Legend:
[1] = Shake foam test in deionized water; conditions: 0.1 wt % in deionized water, 10 ml, shaken 10 minutes
Method: Shake foam property of compounds 1 and 2 are tested and compared with Triton™ CG-110, a commercial surfactant from The Dow Chemical Company: 10 ml of surfactant solution in deionized water at 0.1 wt % is placed in a 100 ml wide-mouth bottle with cap. All the test solutions in bottles are secured on the plate of an orbital shaker and are shaken at for 10 minutes. After the shaking, the foam volume in each bottle is recorded at different times.

[2] = Hard surface cleaning scrubbing test on soiled vinyl tile; conditions: 1% surfactant, 3% DOWANOL PnB, 0.5% monoethanolamine in water; scrubbed 5 min; average of three tests (compound 4: two)
Method: The efficiency for alkyl oligoglycerols to remove carbon black soil on a hard surface is evaluated by a scrubbing test. A vinyl tile is soiled by spreading 500 uL of a carbon black soil (61.06% naphtha, 27.62% caprylic/capric triglyceride, 8.15% soybean oil, and 3.17% carbon black) uniformly using a foam brush. The tile is air-dried in a fume hood over the weekend. The soiled tile is divided into 12 wells. Surfactant formulations (600 uL 1% surfactant (examples 1-8), 3% DOWANOL™ PnB (a glycol ether containing propylene glycol n-butyl ether), 0.5% monoethanolamine in water are each added into individual wells. The soiled vinyl tile is scrubbed for 5 min with paper towel scrubbers. After scrubbing, cleaning solutions are removed and the wells are rinsed gently with DI water. The vinyl tile is dried overnight. The image of the vinyl tile is recorded with a scanner, and analyzed by imaging software ImageJ to determine the grey scale in each well. Each surfactant formulation is tested three times, except compound 4 which is tested two times. Average grey values are reported.

Structure (SMILES) | Shaken Foam Volume, 0 min. ([1]; 0 min. after shaking) [mL] | Shaken Foam Volume, 20 min. ([1]; 20 min. after shaking) [mL] | Shaken Foam Volume, 60 min. ([1]; 60 min. after shaking) [mL] | Average Grey Scale Value [2]
CCCCCCCCCOCC(O)COCC(O)CO (centres unmarked) [Compound 1, 3-[3-(nonyloxy)-2-hydroxypropoxy]-1,2-propanediol] | 41 | 40 | 37 | 116
CCCCCC(CCC)COCC(O)COCC(O)CO (centres unmarked) [Compound 3, 3-(2-hydroxy-3-((2-propylheptyl)oxy)propoxy)propane-1,2-diol] | – | – | – | 100
CCCCCCCCCCOCC(O)COCC(O)CO (centres unmarked) [Compound 4, 3[3-(decyloxy)-2-hydroxypropoxy]-1,2-propanediol] | – | – | – | 169
CC(C)CCCC(C)CCOCC(O)COCC(O)CO (centres unmarked) [Compound 5, 3-(3((3,7-dimethyloctyl)oxy)-2-hydroxypropoxy)propane-1,2-diol] | – | – | – | 133
CCCCCCCCCCCOCC(O)COCC(O)CO (centres unmarked) [Compound 6, 3-(2-hydroxy-3-(undecyloxy)propoxy)propane-1,2-diol] | – | – | – | 150
